Experimental data reported in the supplement of paper PMC4604168 (melanoma cell lines).
Some of the results follow. Many values rest on one well or one pass, so single values are uncertain.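 Cells were imaged in 1,536-well plates, and nuclei stained with an antibody against cleaved PARP were counted against all DNA-stained nuclei to give the apoptosis fraction. Screening doses were chosen to leave most cells alive, and resting and induced cleaved-PARP levels differ strongly between cell lines.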

How the values were obtained:
Assay in all cases: cleaved PARP positive nuclei fraction relative to DMSO control; melanoma cells; higher = more apoptosis
Conditions in all cases: library dose: low library concentration; 72 h
501Mel = test system: 501Mel
A101D = test system: A101D
A2058 = test system: A2058
A375 = test system: A375
C32 = test system: C32
CBRC013 = test system: CBRC013 (line from a melanoma biopsy)
CBRC014 = test system: CBRC014 (line from a melanoma biopsy)
CBRC016 = test system: CBRC016 (line from a melanoma biopsy)
CBRC017 = test system: CBRC017 (line from a melanoma biopsy)
CBRC034 = test system: CBRC034 (line from a melanoma biopsy)
COLO792 = test system: COLO792
COLO800 = test system: COLO800
COLO829 = test system: COLO829
G361 = test system: G361
IPC-298 = test system: IPC-298
IST-MEL1 = test system: IST-MEL1
LB2518-MEL = test system: LB2518-MEL
LOXIMVI = test system: LOXIMVI

SMILES | cleaved PARP positive nuclei fraction (501Mel) [%] | cleaved PARP positive nuclei fraction (A101D) [%] | cleaved PARP positive nuclei fraction (A2058) [%] | cleaved PARP positive nuclei fraction (A375) [%] | cleaved PARP positive nuclei fraction (C32) [%] | cleaved PARP positive nuclei fraction (CBRC013) [%] | cleaved PARP positive nuclei fraction (CBRC014) [%] | cleaved PARP positive nuclei fraction (CBRC016) [%] | cleaved PARP positive nuclei fraction (CBRC017) [%] | cleaved PARP positive nuclei fraction (CBRC034) [%] | cleaved PARP positive nuclei fraction (COLO792) [%] | cleaved PARP positive nuclei fraction (COLO800) [%] | cleaved PARP positive nuclei fraction (COLO829) [%] | cleaved PARP positive nuclei fraction (G361) [%] | cleaved PARP positive nuclei fraction (IPC-298) [%] | cleaved PARP positive nuclei fraction (IST-MEL1) [%] | cleaved PARP positive nuclei fraction (LB2518-MEL) [%] | cleaved PARP positive nuclei fraction (LOXIMVI) [%]
C#Cc1cccc(Nc2ncnc3cc(OCCOC)c(OCCOC)cc23)c1 [erlotinib] + COc1ccc(COc2ccc(Cc3cnc(N)nc3N)cc2OC)cc1 [GW2580] (first compound 0.8 µM, partner dose 1 µM) | 97.1 | 121 | 123 | 24.1 | 38.3 | 312 | 88.8 | 63.8 | 77 | 61.4 | 103 | 81.8 | 63.5 | 85.4 | 45 | 89.4 | 87.1 | 63.9
Cc1nc(Nc2ncc(C(=O)Nc3c(C)cccc3Cl)s2)cc(N2CCN(CCO)CC2)n1 [dasatanib] + O=c1cc(-c2cccc3c2Sc2ccccc2S3)oc(N2CCOCC2)c1 [KU55933] (first compound 0.004 µM, partner dose 1 µM) | 174 | 67.1 | 94.5 | 122 | 305 | 50.3 | 96.5 | 143 | 110 | 132 | 153 | 236 | 37.6 | 147 | 366 | 131 | 78.5 | 60.8
C#Cc1cccc(Nc2ncnc3cc(OCCOC)c(OCCOC)cc23)c1 [erlotinib] + O=C(Nc1ccccc1)c1cc([N+](=O)[O-])ccc1Cl [GW9662] (first compound 0.8 µM, partner dose 2 µM) | 57 | 189 | 118 | 227 | 57.9 | 62.1 | 111 | 76.6 | 85 | 183 | 129 | 64 | 109 | 38.6 | 159 | 62.7 | 101 | 62.4
Cc1nc(Nc2ncc(C(=O)Nc3c(C)cccc3Cl)s2)cc(N2CCN(CCO)CC2)n1 [dasatanib] + O=C(Nc1ccccc1)c1cc([N+](=O)[O-])ccc1Cl [GW9662] (first compound 0.004 µM, partner dose 2 µM) | 77.8 | 94.7 | 148 | 202 | 423 | 350 | 102 | 46.8 | 187 | 95.3 | 70.3 | 108 | 55.1 | 128 | 43.9 | 70.6 | 90.6 | 784
Nc1cccc2c1CN(C1CCC(=O)NC1=O)C2=O (stereo not given) [lenalidomide] + CCCCCCCCCCCC1=C(O)C(=O)C=C(O)C1=O [Embelin] (first compound 1 µM, partner dose 1.2 µM) | 63.5 | 42.4 | 76.6 | 140 | 74.9 | 43.5 | 77.9 | 69.6 | 87.8 | 23 | 125 | 196 | 57.1 | 87 | 105 | 41.1 | 79.5 | 113
CC1(C)NC(=O)N(c2ccc([N+](=O)[O-])c(C(F)(F)F)c2)C1=O [nilutamide] + COc1ccc(-c2ccc3c(N4CCOCC4)nc(N4C[C@@H](C)O[C@@H](C)C4)nc3n2)cc1CO [KU0063794] (first compound 1 µM, partner dose 0.02 µM) | 61.1 | 104 | 21.7 | 102 | 97.2 | 135 | 78.3 | 70.5 | 67.1 | 44.6 | 100 | 199 | 89.3 | 46.8 | 98.6 | 126 | 81 | 68.2
CC1(C)NC(=O)N(c2ccc([N+](=O)[O-])c(C(F)(F)F)c2)C1=O [nilutamide] + Cc1cc([N+](=O)[O-])ccc1NS(=O)(=O)c1cc(Cl)ccc1Cl [FH535] (first compound 1 µM, partner dose 1 µM) | 41.7 | 134 | 57.5 | 117 | 103 | 180 | 141 | 1040 | 251 | 188 | 101 | 151 | 103 | 146 | 38.6 | 32.2 | 97.1 | 72.5
Cn1cncc1[C@@](N)(c1ccc(Cl)cc1)c1ccc2c(c1)c(-c1cccc(Cl)c1)cc(=O)n2C [tipifarnib] + COc1ccc(-c2ccc3c(N4CCOCC4)nc(N4C[C@@H](C)O[C@@H](C)C4)nc3n2)cc1CO [KU0063794] (first compound 0.01 µM, partner dose 0.02 µM) | 95.8 | 258 | 150 | 106 | 107 | 295 | 104 | 37.5 | 89.8 | 93.8 | 120 | 229 | 125 | 101 | 129 | 431 | 95 | 32.8
OCCn1cc(-c2cnc3nnn(Cc4ccc5ncccc5c4)c3n2)cn1 + COc1cc(N2CCC(N3CCN(C)CC3)CC2)ccc1Nc1ncc(Cl)c(Nc2ccccc2S(=O)(=O)C(C)C)n1 [NVP-TAE684] (first compound 1 µM, partner dose 0.08 µM) | 55.2 | 161 | 168 | 315 | 135 | 121 | 215 | 84.4 | 85.3 | 85 | 122 | 264 | 138 | 74.9 | 36.2 | 89.7 | 104 | 44.2
Cn1nnc2c(C(N)=O)ncn2c1=O [temozolomide] + N#Cc1c(O)c2c(-c3ccc(-c4ccccc4O)cc3)csc2[nH]c1=O [A769662] (first compound 2 µM, partner dose 2 µM) | 84.8 | 120 | 68.2 | 86.2 | 76.8 | 79.1 | 121 | 31.8 | 86.7 | 44.4 | 128 | 26 | 120 | 73.2 | 50.8 | 91 | 228 | 73.9
CC(C)(C)c1cnc(CSc2cnc(NC(=O)C3CCNCC3)s2)o1 + COc1ccc2c(c1)CCC1C2CCC2(C)C(NCCCCCCN3C(=O)C=CC3=O)CCC12 [U73122] (first compound 0.01 µM, partner dose 0.4 µM) | 63.8 | 155 | 30.5 | 440 | 97.6 | 46.1 | 119 | 138 | 81.4 | 63.1 | 104 | 152 | 62.8 | 158 | 195 | 175 | 87 | 41.4
C#Cc1cccc(Nc2ncnc3cc(OCCOC)c(OCCOC)cc23)c1 [erlotinib] + Oc1nc(-c2ccc(C(F)(F)F)cc2)nc2c1CSCC2 [XAV939] (first compound 0.8 µM, partner dose 2 µM) | 95.4 | 89.7 | 71.2 | 111 | 149 | 158 | 91.5 | 82.4 | 106 | 53.1 | 211 | 35.2 | 101 | 130 | 117 | 91.6 | 84.8 | 68.5
Cc1cc(N2CCOCC2)cc2[nH]c(-c3c(NC[C@@H](O)c4cccc(Cl)c4)cc[nH]c3=O)nc12 + COc1ccc(-c2ccc3c(N4CCOCC4)nc(N4C[C@@H](C)O[C@@H](C)C4)nc3n2)cc1CO [KU0063794] (first compound 0.2 µM, partner dose 0.02 µM) | 82.6 | 65.1 | 174 | 226 | 73.3 | 86.2 | 102 | 67.5 | 75.4 | 80.4 | 158 | 197 | 55 | 107 | 106 | 153 | 87.3 | 132
Cn1c(Nc2ccc(C(F)(F)F)cc2)nc2cc(Oc3ccnc(-c4ncc(C(F)(F)F)[nH]4)c3)ccc21 + COC(=O)c1sccc1S(=O)(=O)Nc1ccc(Nc2ccccc2)cc1OC [GSK0660] (first compound 0.08 µM, partner dose 1 µM) | 48.9 | 183 | 167 | 253 | 73 | 498 | 87.3 | 189 | 101 | 53.4 | 255 | 96.8 | 108 | 171 | 90.4 | 201 | 212 | 84.5
O=C(CCCCCCC(=O)Nc1ccccc1)NO [vorinostat] + c1cc(-c2cnn3cc(-c4ccc(OCCN5CCCCC5)cc4)cnc23)ccn1 [Dorsomorphin] (first compound 0.08 µM, partner dose 0.4 µM) | 51.7 | 115 | 89.5 | 74.5 | 128 | 55.8 | 84.2 | 73.5 | 79.7 | 38.1 | 65.1 | 160 | 83.4 | 292 | 19.5 | 85.5 | 41.2 | 54.9

A second format for part of the listing above:
SMILES	cleaved PARP positive nuclei fraction (501Mel) [%]	cleaved PARP positive nuclei fraction (A101D) [%]	cleaved PARP positive nuclei fraction (A2058) [%]	cleaved PARP positive nuclei fraction (A375) [%]	cleaved PARP positive nuclei fraction (C32) [%]	cleaved PARP positive nuclei fraction (CBRC013) [%]	cleaved PARP positive nuclei fraction (CBRC014) [%]	cleaved PARP positive nuclei fraction (CBRC016) [%]	cleaved PARP positive nuclei fraction (CBRC017) [%]	cleaved PARP positive nuclei fraction (CBRC034) [%]	cleaved PARP positive nuclei fraction (COLO792) [%]	cleaved PARP positive nuclei fraction (COLO800) [%]	cleaved PARP positive nuclei fraction (COLO829) [%]	cleaved PARP positive nuclei fraction (G361) [%]	cleaved PARP positive nuclei fraction (IPC-298) [%]	cleaved PARP positive nuclei fraction (IST-MEL1) [%]	cleaved PARP positive nuclei fraction (LB2518-MEL) [%]	cleaved PARP positive nuclei fraction (LOXIMVI) [%]
C#Cc1cccc(Nc2ncnc3cc(OCCOC)c(OCCOC)cc23)c1 [erlotinib] + Oc1nc(-c2ccc(C(F)(F)F)cc2)nc2c1CSCC2 [XAV939] (first compound 0.8 µM, partner dose 2 µM)	95.4	89.7	71.2	111	149	158	91.5	82.4	106	53.1	211	35.2	101	130	117	91.6	84.8	68.5
Cc1cc(N2CCOCC2)cc2[nH]c(-c3c(NC[C@@H](O)c4cccc(Cl)c4)cc[nH]c3=O)nc12 + COc1ccc(-c2ccc3c(N4CCOCC4)nc(N4C[C@@H](C)O[C@@H](C)C4)nc3n2)cc1CO [KU0063794] (first compound 0.2 µM, partner dose 0.02 µM)	82.6	65.1	174	226	73.3	86.2	102	67.5	75.4	80.4	158	197	55	107	106	153	87.3	132
